According to article PMC6168597, “Mutations at the hydrophobic core affect Hal3 trimer stability, reducing its Ppz1 inhibitory capacity but not its PPCDC moonlighting function” (Scientific Reports, 2018):
These are yes or no findings as the source states them, for the method shown. For some assays here: In cells and extracts the contact can be indirect. Some results given as binding are weak or reduced against the parent protein; the word gives no strength. Sequences can lack the tags named with a protein.

T1: GST-fused full length Ppz1 (S. cerevisiae, UniProt P26570 1-692)
T1 construct: Ser/Thr protein phosphatase Ppz1, S. cerevisiae, full length; also called GST-Ppz1; source: E. coli BL21 (DE3) RIL, purified on glutathione-agarose
T1 sequence (looked up): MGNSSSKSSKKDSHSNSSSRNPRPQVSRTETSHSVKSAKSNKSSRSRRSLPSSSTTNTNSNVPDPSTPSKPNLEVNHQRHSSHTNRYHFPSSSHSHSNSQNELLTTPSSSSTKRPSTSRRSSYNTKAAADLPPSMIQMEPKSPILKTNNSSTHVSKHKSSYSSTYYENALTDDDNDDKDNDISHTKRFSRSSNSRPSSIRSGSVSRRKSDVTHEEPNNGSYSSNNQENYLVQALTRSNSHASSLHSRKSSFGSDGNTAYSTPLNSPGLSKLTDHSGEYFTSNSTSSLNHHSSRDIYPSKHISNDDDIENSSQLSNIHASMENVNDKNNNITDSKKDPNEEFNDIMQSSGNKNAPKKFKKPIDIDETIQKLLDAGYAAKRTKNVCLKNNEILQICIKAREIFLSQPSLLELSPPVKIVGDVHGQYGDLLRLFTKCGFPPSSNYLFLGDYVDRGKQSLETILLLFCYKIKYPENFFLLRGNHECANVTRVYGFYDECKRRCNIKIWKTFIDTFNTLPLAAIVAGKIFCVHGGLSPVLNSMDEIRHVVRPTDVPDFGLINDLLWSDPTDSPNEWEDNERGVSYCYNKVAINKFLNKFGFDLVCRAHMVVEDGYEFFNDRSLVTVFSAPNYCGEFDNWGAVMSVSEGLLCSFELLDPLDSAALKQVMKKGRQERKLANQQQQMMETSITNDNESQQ

T2: GST-Cab3, recombinant (S. cerevisiae) (UniProt P36076)
T2 sequence: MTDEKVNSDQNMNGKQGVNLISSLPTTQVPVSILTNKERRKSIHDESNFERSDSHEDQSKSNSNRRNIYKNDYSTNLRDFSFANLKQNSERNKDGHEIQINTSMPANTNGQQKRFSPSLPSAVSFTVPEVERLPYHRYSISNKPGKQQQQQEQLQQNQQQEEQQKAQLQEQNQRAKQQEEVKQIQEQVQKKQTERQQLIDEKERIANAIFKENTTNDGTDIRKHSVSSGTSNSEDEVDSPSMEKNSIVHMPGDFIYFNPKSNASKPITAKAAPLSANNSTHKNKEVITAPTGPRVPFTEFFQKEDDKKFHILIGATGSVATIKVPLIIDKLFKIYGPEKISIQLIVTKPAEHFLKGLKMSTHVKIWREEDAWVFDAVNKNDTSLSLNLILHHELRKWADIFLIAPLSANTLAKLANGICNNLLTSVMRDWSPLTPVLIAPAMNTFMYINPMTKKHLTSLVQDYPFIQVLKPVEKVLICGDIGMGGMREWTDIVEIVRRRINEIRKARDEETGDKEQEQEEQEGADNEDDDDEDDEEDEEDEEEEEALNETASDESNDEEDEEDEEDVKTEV

T3: GST-fused Ppz1-Cter (Δ1–344) catalytic moiety (S. cerevisiae) (UniProt P26570)
T3 sequence: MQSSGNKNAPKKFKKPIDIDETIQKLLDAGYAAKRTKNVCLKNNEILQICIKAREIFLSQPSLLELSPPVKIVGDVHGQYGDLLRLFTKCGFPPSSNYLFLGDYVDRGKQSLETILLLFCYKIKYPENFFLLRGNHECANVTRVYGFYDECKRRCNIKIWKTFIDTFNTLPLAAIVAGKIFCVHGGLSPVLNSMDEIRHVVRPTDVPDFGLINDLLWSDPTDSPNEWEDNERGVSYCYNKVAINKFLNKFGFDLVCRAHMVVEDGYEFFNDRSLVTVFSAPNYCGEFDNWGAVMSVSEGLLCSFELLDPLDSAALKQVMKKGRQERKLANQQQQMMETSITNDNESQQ


Experiments:
[1] = molecular target: T1, GST-fused full length Ppz1; assay: pull-down; 4 ug GST-Ppz1 or GST-Ppz1-Cter on glutathione-agarose beads, 600 ug protein extract of IM021 yeast expressing HA-tagged ScHal3 versions, anti-HA immunoblot; signal related to Ponceau-stained bait, native ScHal3 as the unit; only the target purified
[2] = molecular target: T2, GST-Cab3, recombinant (S. cerevisiae); assay: pull-down; 10 ug GST-Cab3 on glutathione beads, 2 mg protein extract of IM021 yeast expressing HA-tagged ScHal3 versions, anti-HA immunoblot; only the target purified
[3] = molecular target: ScHal3 L403N L405E, recombinant, GST removed (S. cerevisiae) (UniProt P36024); assay: cross-linking; purified GST-free proteins (1 or 2 ug) treated with 0.01% glutaraldehyde, SDS-PAGE, Coomassie staining; both purified
[4] = molecular target: ScHal3 L403N L405E, recombinant, GST removed (S. cerevisiae) (UniProt P36024); assay: SEC; Superdex 200 HR 10/30, 500 ul at 0.2–0.4 mg/ml of GST-free protein, 10 mM Tris-HCl pH 7.5, 150 mM NaCl, 2 mM DTT, 0.75 ml/min; both purified
[5] = molecular target: T3, GST-fused Ppz1-Cter (Δ1–344) catalytic moiety (S. cerevisiae); assay: pull-down; 4 ug GST-Ppz1 or GST-Ppz1-Cter on glutathione-agarose beads, 600 ug protein extract of IM021 yeast expressing HA-tagged ScHal3 versions, anti-HA immunoblot; signal related to Ponceau-stained bait, native ScHal3 as the unit; only the target purified

Row | binding [1] | binding [2] | binding [3] | binding [4] | binding [5] | Binder
1 | binds | binds | – | – | – | ScHal3 L403N, recombinant, GST removed (natural protein, S. cerevisiae, UniProt P36024 1-562, looked up, Hal3 (Sis2), S. cerevisiae, in pGEX-6P-1 with L403N; also called the L403 variant; source: E. coli BL21 (DE3) RIL, GST fusion purified on glutathione-agarose, GST cleaved with PreScission protease) MTAVASTSGKQDADHNQSIECPRFSRGQKEILLDHEDAKGKDSIINSPVSGRQSISPTLSNATTTTTKSIMNATGTSGAVVSNTPEPGLKRVPAVTFSDLKQQQKQDSLTQLKNDSERTKSPNSNPAPVSNSIPGNHAVIPNHTNTSRTTQLSGSPLVNEMKDYDPKKKDSALKIVDTMKPDKIMATSTPISRENNKVTAKAPTSITLRKEDAQDQANNVSGQINVRSTPEETPVKQSVIPSIIPKRENSKNLDPRLPQDDGKLHVLFGATGSLSVFKIKPMIKKLEEIYGRDRISIQVILTQSATQFFEQRYTKKIIKSSEKLNKMSQYESTPATPVTPTPGQCNMAQVVELPPHIQLWTDQDEWDAWKQRTDPVLHIELRRWADILVVAPLTANTLSKIANGLCDNLLTSVIRAWNPSYPILLAPSMVSSTFNSMMTKKQLQTIKEEMSWVTVFKPSEKVMDINGDIGLGGMMDWNEIVNKIVMKLGGYPKNNEEEDDDEDEEEDDDEEEDTEDKNENNNDDDDDDDDDDDDDDDDDDDDDDDDEDEDEAETPGIIDKHQ
2 | – | – | no binding | no binding | – | ScHal3 L403N L405E, recombinant, GST removed (protein, UniProt P36024 1-562) MTAVASTSGKQDADHNQSIECPRFSRGQKEILLDHEDAKGKDSIINSPVSGRQSISPTLSNATTTTTKSIMNATGTSGAVVSNTPEPGLKRVPAVTFSDLKQQQKQDSLTQLKNDSERTKSPNSNPAPVSNSIPGNHAVIPNHTNTSRTTQLSGSPLVNEMKDYDPKKKDSALKIVDTMKPDKIMATSTPISRENNKVTAKAPTSITLRKEDAQDQANNVSGQINVRSTPEETPVKQSVIPSIIPKRENSKNLDPRLPQDDGKLHVLFGATGSLSVFKIKPMIKKLEEIYGRDRISIQVILTQSATQFFEQRYTKKIIKSSEKLNKMSQYESTPATPVTPTPGQCNMAQVVELPPHIQLWTDQDEWDAWKQRTDPVLHIELRRWADILVVAPLTANTLSKIANGECDNLLTSVIRAWNPSYPILLAPSMVSSTFNSMMTKKQLQTIKEEMSWVTVFKPSEKVMDINGDIGLGGMMDWNEIVNKIVMKLGGYPKNNEEEDDDEDEEEDDDEEEDTEDKNENNNDDDDDDDDDDDDDDDDDDDDDDDDEDEDEAETPGIIDKHQ
3 | binds | binds | – | – | binds | S. cerevisiae Hal3 (ScHal3), native, recombinant, GST removed (natural protein, UniProt P36024 1-562, looked up, the methods speak of 'each full-length recombinant protein' and the predicted homotrimer is ~190 kDa; also called native ScHal3; WT; source: E. coli BL21 (DE3) RIL, GST fusion purified on glutathione-agarose, GST cleaved with PreScission protease) MTAVASTSGKQDADHNQSIECPRFSRGQKEILLDHEDAKGKDSIINSPVSGRQSISPTLSNATTTTTKSIMNATGTSGAVVSNTPEPGLKRVPAVTFSDLKQQQKQDSLTQLKNDSERTKSPNSNPAPVSNSIPGNHAVIPNHTNTSRTTQLSGSPLVNEMKDYDPKKKDSALKIVDTMKPDKIMATSTPISRENNKVTAKAPTSITLRKEDAQDQANNVSGQINVRSTPEETPVKQSVIPSIIPKRENSKNLDPRLPQDDGKLHVLFGATGSLSVFKIKPMIKKLEEIYGRDRISIQVILTQSATQFFEQRYTKKIIKSSEKLNKMSQYESTPATPVTPTPGQCNMAQVVELPPHIQLWTDQDEWDAWKQRTDPVLHIELRRWADILVVAPLTANTLSKIALGLCDNLLTSVIRAWNPSYPILLAPSMVSSTFNSMMTKKQLQTIKEEMSWVTVFKPSEKVMDINGDIGLGGMMDWNEIVNKIVMKLGGYPKNNEEEDDDEDEEEDDDEEEDTEDKNENNNDDDDDDDDDDDDDDDDDDDDDDDDEDEDEAETPGIIDKHQ
4 | – | binds | – | – | binds | HA-tagged ScHal3 L405E expressed in S. cerevisiae from pWS93 (natural protein, UniProt P36024 1-562, looked up, Hal3 (Sis2), S. cerevisiae, with L405E; insert released from the pGEX construct and cloned into pWS93; source: S. cerevisiae IM021 (ppz1 hal3), expressed from pWS93, in protein extract) MTAVASTSGKQDADHNQSIECPRFSRGQKEILLDHEDAKGKDSIINSPVSGRQSISPTLSNATTTTTKSIMNATGTSGAVVSNTPEPGLKRVPAVTFSDLKQQQKQDSLTQLKNDSERTKSPNSNPAPVSNSIPGNHAVIPNHTNTSRTTQLSGSPLVNEMKDYDPKKKDSALKIVDTMKPDKIMATSTPISRENNKVTAKAPTSITLRKEDAQDQANNVSGQINVRSTPEETPVKQSVIPSIIPKRENSKNLDPRLPQDDGKLHVLFGATGSLSVFKIKPMIKKLEEIYGRDRISIQVILTQSATQFFEQRYTKKIIKSSEKLNKMSQYESTPATPVTPTPGQCNMAQVVELPPHIQLWTDQDEWDAWKQRTDPVLHIELRRWADILVVAPLTANTLSKIALGECDNLLTSVIRAWNPSYPILLAPSMVSSTFNSMMTKKQLQTIKEEMSWVTVFKPSEKVMDINGDIGLGGMMDWNEIVNKIVMKLGGYPKNNEEEDDDEDEEEDDDEEEDTEDKNENNNDDDDDDDDDDDDDDDDDDDDDDDDEDEDEAETPGIIDKHQ
5 | – | binds | – | – | binds | HA-tagged ScHal3 L403N L405E expressed in S. cerevisiae from pWS93 (natural protein, UniProt P36024 1-562, looked up, Hal3 (Sis2), S. cerevisiae, with L403N and L405E; insert released from the pGEX construct and cloned into pWS93; also called the double mutated variant; source: S. cerevisiae IM021 (ppz1 hal3), expressed from pWS93, in protein extract) MTAVASTSGKQDADHNQSIECPRFSRGQKEILLDHEDAKGKDSIINSPVSGRQSISPTLSNATTTTTKSIMNATGTSGAVVSNTPEPGLKRVPAVTFSDLKQQQKQDSLTQLKNDSERTKSPNSNPAPVSNSIPGNHAVIPNHTNTSRTTQLSGSPLVNEMKDYDPKKKDSALKIVDTMKPDKIMATSTPISRENNKVTAKAPTSITLRKEDAQDQANNVSGQINVRSTPEETPVKQSVIPSIIPKRENSKNLDPRLPQDDGKLHVLFGATGSLSVFKIKPMIKKLEEIYGRDRISIQVILTQSATQFFEQRYTKKIIKSSEKLNKMSQYESTPATPVTPTPGQCNMAQVVELPPHIQLWTDQDEWDAWKQRTDPVLHIELRRWADILVVAPLTANTLSKIANGECDNLLTSVIRAWNPSYPILLAPSMVSSTFNSMMTKKQLQTIKEEMSWVTVFKPSEKVMDINGDIGLGGMMDWNEIVNKIVMKLGGYPKNNEEEDDDEDEEEDDDEEEDTEDKNENNNDDDDDDDDDDDDDDDDDDDDDDDDEDEDEAETPGIIDKHQ
